According to publication PMC10775494:
Results are given in words; binding and its absence hold for the method and conditions named. Binding seen in cells or lysates may run through a third protein. Binding can be weak; no strength is given.

Sequences of proteins named here, by UniProt entry; tags and fusion partners are left off. A change or cut given only in a name is not applied to a line headed by its entry.
UniProt G4MW61: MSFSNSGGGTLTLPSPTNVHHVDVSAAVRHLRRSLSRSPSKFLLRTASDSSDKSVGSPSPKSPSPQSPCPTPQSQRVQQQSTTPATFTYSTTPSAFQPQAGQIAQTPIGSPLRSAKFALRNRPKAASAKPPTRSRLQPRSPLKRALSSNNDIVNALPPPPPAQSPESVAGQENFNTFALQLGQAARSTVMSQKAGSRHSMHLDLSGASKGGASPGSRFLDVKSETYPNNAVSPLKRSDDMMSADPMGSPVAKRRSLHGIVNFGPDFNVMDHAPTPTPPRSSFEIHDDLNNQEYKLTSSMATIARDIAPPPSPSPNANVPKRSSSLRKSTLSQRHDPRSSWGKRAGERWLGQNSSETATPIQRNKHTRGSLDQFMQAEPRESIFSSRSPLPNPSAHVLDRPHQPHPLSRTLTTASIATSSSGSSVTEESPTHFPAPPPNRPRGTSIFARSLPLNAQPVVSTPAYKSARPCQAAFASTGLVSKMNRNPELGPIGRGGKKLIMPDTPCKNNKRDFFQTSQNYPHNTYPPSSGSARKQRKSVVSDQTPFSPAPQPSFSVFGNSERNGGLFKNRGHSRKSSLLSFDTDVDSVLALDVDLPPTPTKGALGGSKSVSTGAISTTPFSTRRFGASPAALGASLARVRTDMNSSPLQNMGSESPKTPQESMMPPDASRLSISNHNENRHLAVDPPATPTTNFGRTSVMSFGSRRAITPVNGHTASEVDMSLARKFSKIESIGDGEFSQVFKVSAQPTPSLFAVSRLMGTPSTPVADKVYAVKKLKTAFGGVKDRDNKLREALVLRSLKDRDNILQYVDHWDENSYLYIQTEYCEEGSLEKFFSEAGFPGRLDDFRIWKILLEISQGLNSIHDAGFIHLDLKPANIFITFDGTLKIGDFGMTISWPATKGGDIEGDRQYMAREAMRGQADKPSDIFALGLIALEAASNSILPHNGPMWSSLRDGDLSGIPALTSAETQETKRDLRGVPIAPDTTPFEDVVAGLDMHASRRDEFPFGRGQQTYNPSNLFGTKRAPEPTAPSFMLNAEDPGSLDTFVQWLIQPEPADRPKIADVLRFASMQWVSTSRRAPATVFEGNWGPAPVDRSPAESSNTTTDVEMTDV
UniProt G4N374: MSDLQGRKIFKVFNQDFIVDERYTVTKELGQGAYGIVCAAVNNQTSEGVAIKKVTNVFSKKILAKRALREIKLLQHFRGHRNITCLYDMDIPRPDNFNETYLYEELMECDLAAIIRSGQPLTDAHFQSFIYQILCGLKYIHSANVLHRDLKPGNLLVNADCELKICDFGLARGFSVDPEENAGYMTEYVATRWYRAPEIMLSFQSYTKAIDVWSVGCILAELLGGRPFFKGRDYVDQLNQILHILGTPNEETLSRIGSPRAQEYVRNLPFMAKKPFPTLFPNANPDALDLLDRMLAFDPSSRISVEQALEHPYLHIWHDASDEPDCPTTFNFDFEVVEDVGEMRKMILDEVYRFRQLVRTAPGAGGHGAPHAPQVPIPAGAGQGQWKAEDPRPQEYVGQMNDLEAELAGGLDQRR

Biological target: MoSwe1-YFPN (M. oryzae) (UniProt G4MW61)
Assay: split reporter

**Q.** With MoMps1-YFPC (from UniProt G4N374 1-415) as the substance, how does the binding read?
**A.** The binding was “binds”.
